Among all 140,000 compounds or so, about 4,300 (3.1%) were called active. The shares of active, inactive and inconclusive entries below differ from those in the screen.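 The calls were made as follows: active = readout at or below -70, meaning at least 70% loss of cells showing the perinucleolar compartment, a nuclear body marking cancer cells; inconclusive = readout between -30 and a set limit; inactive = the rest.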
assay: High Content Assay for Compounds that inhibit the Assembly of the Perinucleolar Compartment; details: PC3M PTB-GFP, PNC prevalence imaging, 16 h; at 10 µM; active compounds read low;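 also: plate controls were DMSO wells for no effect and camptothecin positive control wells for full effect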
How it was run: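 Compounds are pinned in duplicate onto adhered PC3M cells stably expressing GFP-tagged PTB and incubated 16 h at 37 C. Cells are then fixed, nuclei stained with Hoechst, and PNC-positive cells counted.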

Row | SMILES | activity change (PNC), negative = inhibition
1 | COc1ccc(-c2nc3ccccc3s2)cc1O | active: -90.5%
2 | COc1nn(CC(=O)N2N=C(C(F)F)CC2(O)C(F)F)cc1[N+](=O)[O-] (centres undefined) | active: -89.6%
3 | Cc1cc(C)n(Cc2cccc(F)c2)c(=O)c1C#N | inconclusive: -47.3%
4 | CC(=O)c1ccc(OC(=O)C2c3ccccc3Oc3ccccc32)cc1 | inconclusive: -45.6%
5 | CCC(=O)Nc1cccc(NC(=O)CSc2nnnn2C)c1 | inconclusive: -36.3%
6 | Cc1nc2ncnn2c(C)c1CCC(=O)Nc1ccc(S(=O)(=O)N2CCCCCC2)cc1 | active: -93.8%
7 | C/C(Cn1nnc([N+](=O)[O-])n1)=N\NC(=O)c1ccc(O)cc1O | inconclusive: -36.4%
8 | COc1ccc(S(=O)(=O)Nc2ccccc2OC)cc1NC(=O)CC1CC2CCC1C2 (centres undefined) | inactive: 18.9%
9 | COc1ccc(-n2c(Cc3cccn3C)nnc2SCC(=O)Nc2ccccc2F)cc1 | active: -108%
10 | O=C(COc1cccc(NC(=O)c2cccs2)c1)c1ccc(F)cc1 | inactive: 31.5%
11 | CS(=O)(=O)N(Cc1ccco1)CC(O)Cn1cc(C=O)c2ccccc21 (centres undefined) | active: -88.2%
12 | O=C1CCCN1c1ccc(CNS(=O)(=O)c2ccc(F)cc2)cc1 | inconclusive: -54.5%
13 | O=C(Nc1nc(-c2ccccc2)cs1)c1ccc2c(=O)n3c(nc2c1)CCCCC3 | inactive: -3.03%
14 | CCOC(=O)CC(=O)CSc1nc(-c2ccccc2)cc(-c2ccccc2)c1C#N | inactive: 9.91%
15 | COc1cc(/C=C2/C(=O)NN(c3cccc(F)c3)C2=O)ccc1OC(=O)c1ccco1 | active: -80.6%
16 | COc1cc(-c2nc(-c3ccc4c(c3)-c3ccccc3S4(=O)=O)c(-c3ccccc3)[nH]2)cc(OC)c1O | inactive: 38.6%
17 | O=C1CCC(C(=O)N(c2ccccc2)C2(C(=O)NC3CCCCC3)CCCCC2)N1 (centres undefined) | inactive: -9.67%
18 | CCOC(=O)C(NC(=O)Nc1ccccc1)(OCC)C(F)(F)F (centres undefined) | inconclusive: -59.1%
19 | COc1ccc(N(C(=O)CCl)C(C(=O)NCCc2ccccc2)c2cccs2)cc1Cl (centres undefined) | inconclusive: -48.7%
20 | COc1cc(Br)cc2cc(C(=O)N3CCN(c4ccccn4)CC3)c(=O)oc12 | inconclusive: -45.3%
21 | O=c1[nH]c(CN2CCN(c3ccccc3)CC2)nc2ccccc12 | inconclusive: -76.5%
22 | NC1CCCCC1N=Cc1c(O)n(CCc2ccc(F)cc2)c(=O)[nH]c1=O (centres undefined) | inconclusive: -38.3%

Row | SMILES | activity change (PNC), negative = inhibition
23 | O=C(CCCCCN1C(=O)c2ccccc2C1=O)Nc1nccs1 | inconclusive: -61.5%
24 | O=C(c1cc(-c2ccco2)on1)N1CCOCC1 | inactive: 75.8%
25 | CC(NC(=O)c1ccccc1NC(=O)c1ccccc1)C(=O)N1CCOCC1 (centres undefined) | active: -96.6%
26 | CC(NC(=O)Cn1nc(C(=O)O)c2ccccc2c1=O)c1ccccc1 (centres undefined) | inconclusive: -32.9%
27 | COc1ccc(S(=O)(=O)N(C)CC(=O)NCc2cccnc2)cc1C | inconclusive: -69.4%
28 | Cc1c(C(=O)Nc2ccncc2)sc2nc(-c3ccccc3)cn12 | inactive: -26.3%
29 | S=C(Nc1ccccc1Cl)NC1CCN(Cc2ccccc2)CC1 | inconclusive: -31.6%
30 | C=CCn1c(SCC(=O)O)nnc1-c1ccc(C(C)(C)C)cc1 | inconclusive: -68.8%
31 | CCn1nc(-c2ccccc2)c2nc3ccccc3nc21 | inconclusive: -51.5%
32 | CNC(=O)CN(c1ccc(OC)cc1)S(=O)(=O)c1ccc(F)cc1 | inactive: 41.4%
33 | CC1CCc2nn(CC(=O)NC3CCCC(C)C3C)cc2C1 (centres undefined) | inactive: -26.1%
34 | COc1ccc(C)cc1NC(=O)C(OC(=O)c1cccc(S(=O)(=O)N(C)c2ccccc2)c1)c1ccccc1 (centres undefined) | inconclusive: -58.6%
35 | Cc1ccc(NCCC(=O)c2cccc([N+](=O)[O-])c2)cc1 | inactive: -11.3%
36 | O=C(c1cccs1)N1CCN(Cc2ccccc2)CC1 | active: -109%
37 | CC(=O)Oc1ccc(-c2csnn2)cc1 | inconclusive: -38.1%
38 | N#CCSc1nnc(-c2ccccc2O)n1CCc1ccccc1 | inconclusive: -42.3%
39 | CCOC(=O)N1CCC(NC(=O)CCC(=O)N2CCOc3ccccc32)CC1 | inconclusive: -56.9%
40 | Cc1noc(C)c1CSc1ncnc2sc3c(c12)CCCCC3 | inconclusive: -49.4%
41 | O=C(Nn1c(C2CCCCC2)nc2ccccc2c1=O)c1ccc(Cl)c([N+](=O)[O-])c1 | inactive: 16.8%
42 | CC1CCN(S(=O)(=O)c2ccc3ccccc3c2)CC1 | inconclusive: -44.9%
43 | N#Cc1c(NC(=O)C2CC=CCC2C(=O)O)sc2c1CCCCCC2 (centres undefined) | inconclusive: -55.9%
44 | O=S(=O)(/N=C/c1c(O)ccc2ccccc12)c1cccs1 | inactive: 32%

Laid out differently: results already given.

| Row | SMILES | activity change (PNC), negative = inhibition |
| --- | --- | --- |
| 29 | S=C(Nc1ccccc1Cl)NC1CCN(Cc2ccccc2)CC1 | inconclusive: -31.6% |
| 35 | Cc1ccc(NCCC(=O)c2cccc([N+](=O)[O-])c2)cc1 | inactive: -11.3% |
| 37 | CC(=O)Oc1ccc(-c2csnn2)cc1 | inconclusive: -38.1% |
